Laboratory results published in PubChem BioAssay AID493014 (National Center for Advancing Translational Sciences (NCATS), 2011).
The other results are listed elsewhere or left out. The main result of the screen is listed elsewhere. These columns were measured beside it and carry no call. The list favours compounds with an active or inconclusive main result. Potencies come from curve fits of mixed quality, noted in brackets.

Assay: qHTS Assay to Find Inhibitors of Chronic Active B-Cell Receptor Signaling
Settings: ABC-DLBCL IkBa-CBG/CBR reporter, luminescence ratio (green luciferase fused to IkBa over red control in TMD8 lymphoma cells), 4 h
Procedure, shortened: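 TMD8 human ABC-DLBCL cells with doxycycline-inducible IκBα–green luciferase fusion and unfused red luciferase, in 0.5% FBS medium; compounds up to 46 uM, 4 h at 37C. Green/red luminescence ratio, filter-overlap corrected, fitted to concentration-response curves.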

[1] = measured here: CBR red luminescence, cell number
[2] = measured here: IkBa-CBG green luminescence

| Structure (SMILES) | AC50 [1] | AC50 [2] |
| --- | --- | --- |
| CC(C)(C)c1cc(NC(=O)COC(=O)c2ccc(O)cc2O)n(-c2ccccc2)n1 | 18.4 µM [falling, single point] | – |
| CCOC(=O)c1ccc(N2C(=O)C(O)=C(C(C)=O)C2c2ccccn2)cc1 (stereo not drawn) | 1.84 µM [rising, partial curve, poor fit] | – |
| Cc1ccc2nc(NC(=O)CN3CCOCC3)sc2c1 | 4.11 µM [falling, full curve, poor fit] | – |
| O=C(c1cnn(C(=O)c2ccccc2)c1)c1ccccc1O | 2.06 µM [falling, full curve, poor fit] | – |
| O=C(Nc1nc(-c2ccccn2)cs1)c1ccc2c(c1)OCCO2 | 35.5 µM [falling, single point] | – |
| Cc1nc2sc(C(c3cccs3)N3CCN(c4ccccc4)CC3)c(O)n2n1 (stereo not drawn) | 20.6 µM [rising, single point] | – |
| O=C(C1CCN(S(=O)(=O)c2cccs2)CC1)N1CCCC(C(F)(F)F)C1 (stereo not drawn) | 0.0891 µM [falling, full curve, poor fit] | – |
| Cc1cc(=O)n2nc(-c3ccccc3)sc2n1 | 16.4 µM [falling, partial curve] | – |
| Cc1nnc(C)n1/N=C/c1cccc(Oc2ccccc2)c1 | 5.17 µM [falling, full curve] | – |
| NC(=O)CC(NC(=O)Cc1cccc2ccccc12)c1ccc(N2CCc3ccccc3C2)c([N+](=O)[O-])c1 (stereo not drawn) | 8.91 µM [falling, partial curve, poor fit] | – |
| CCCc1cc(=O)oc2c3c(cc(OCC(=O)NCC4CCC(C(=O)O)CC4)c12)OC(C)(C)CC3 (stereo not drawn) | 35.5 µM [falling, single point] | – |
| Oc1[nH]c2ccccc2c1N=Nc1nc2ccccc2s1 | 0.013 µM [falling, full curve, poor fit] | – |
| COc1ccc(CN2CCN(c3ncnc4scc(-c5ccc(F)cc5)c34)CC2)cc1 | 35.5 µM [falling, single point] | – |
| COc1ccc(C)cc1S(=O)(=O)Nc1cc2c3c(c1)CCC(=O)N3CCC2 | 14.6 µM [rising, partial curve, poor fit] | – |
| CC(=O)Nc1ccc(S(=O)(=O)N(Cc2cc3ccc(C)cc3[nH]c2=O)CC2CCCO2)cc1 (stereo not drawn) | 3.55 µM [rising, partial curve, poor fit] | – |
| Cc1ccc(-n2nnc3ccccc3c2=O)cc1C | 6.51 µM [falling, single point] | – |
| CC(=O)Nc1ccc2nc(NC(=O)COc3cccc(C)c3)sc2c1 | 7.08 µM [falling, partial curve, poor fit] | – |
| CCSc1ncnc2c1oc1ccccc12 | 7.08 µM [rising, partial curve, poor fit] | – |
| COc1ccccc1NC(=O)c1cc2ccccc2o1 | 32.6 µM [falling, single point] | – |
| CSc1ccc(C(=O)C2CCCN(C(=O)c3cccnc3SC)C2)cc1 (stereo not drawn) | 3.55 µM [rising, single point] | – |
| COc1cccc(Nc2c3c(nc4c(-c5ccccc5)c(C)nn24)CCC3)c1 | 20.6 µM [falling, single point] | – |
| Cc1ccc(CSc2nnc(NC(=O)Cn3cnc4ccccc4c3=O)s2)cc1 | 35.5 µM [rising, single point] | – |
| CCCCNc1c(-c2ccc(SC(C)CC)c(OC)c2)nc2ccc(C)cn12 (stereo not drawn) | 16.4 µM [falling, partial curve] | – |

Exported with bars between the fields: entries from further up
Structure (SMILES) | AC50 [1] | AC50 [2]
Cc1ccc(CSc2nnc(NC(=O)Cn3cnc4ccccc4c3=O)s2)cc1 | 35.5 µM [rising, single point] | –
CCCCNc1c(-c2ccc(SC(C)CC)c(OC)c2)nc2ccc(C)cn12 (stereo not drawn) | 16.4 µM [falling, partial curve] | –

Reformatted: results already given.
COc1ccc(CN2CCN(c3ncnc4scc(-c5ccc(F)cc5)c34)CC2)cc1
  AC50 [1]: 35.5 µM [falling, single point]
COc1ccc(C)cc1S(=O)(=O)Nc1cc2c3c(c1)CCC(=O)N3CCC2
  AC50 [1]: 14.6 µM [rising, partial curve, poor fit]

More entries:

| Structure (SMILES) | AC50 [1] | AC50 [2] |
| --- | --- | --- |
| O=C1COc2ccc(C(=O)NC3CC3)cc2N1 | 3.98 µM [rising, partial curve, poor fit] | – |
| COc1ccccc1CNC(=O)CN1C(=O)NC(Cc2ccccc2)(c2ccccc2)C1=O (stereo not drawn) | 0.164 µM [rising, full curve, poor fit] | – |
| Cc1nnc(Sc2nc3ccccc3o2)c2ccccc12 | 18.4 µM [falling, single point] | – |
| CCc1nc(NCc2ccccn2)c2oc3ccccc3c2n1 | 22.4 µM [falling, single point] | – |
| CCNC(=O)CC1SC(=Nc2ccccc2C)N(C)C1=O (stereo not drawn) | 23.1 µM [rising, partial curve, poor fit] | – |
| COc1cc(-c2noc(C)c2C#CCO)cc(OC)c1OC | 11.2 µM [falling, partial curve, poor fit] | – |
| O=C(Oc1ccc2ccccc2c1Br)N1CCCCCC1 | 14.1 µM [rising, partial curve, poor fit] | – |
| CC(Oc1ccc2c(-c3ccccc3)cc(=O)oc2c1)C(=O)O (stereo not drawn) | 12.6 µM [rising, single point] | – |
| Cc1nc2nc(SCc3ccccc3)[nH]n2c(=O)c1C | 3.98 µM [falling, partial curve] | – |
| C=CCNC(=S)N1CCN(Cc2ccc3c(c2)OCO3)CC1 | 31.6 µM [falling, partial curve, poor fit] | – |
| Cc1ccc2occ(/C=C/C(=O)c3ccccc3O)c(=O)c2c1 | 6.31 µM [rising, single point] | – |
| O=S1(=O)CC(O)C(NCc2cccnc2)C1 (stereo not drawn) | 16.4 µM [falling, single point] | – |
| O=C(NCc1n[nH]c(=S)n1-c1ccc(F)cc1)c1ccc(S(=O)(=O)N2CCCCC2)cc1 | 7.94 µM [falling, partial curve, poor fit] | – |
| COC(=O)c1ccc(S(=O)(=O)N2CCN(C)CC2)n1C | 35.5 µM [rising, single point] | – |
| O=C(CSCc1ccccn1)Nc1ccccc1 | 20.6 µM [rising, partial curve, poor fit] | – |
| CC(=O)c1cn(-c2ccc(Cl)cc2)c(=O)[nH]c1=O | 7.08 µM [rising, partial curve, poor fit] | – |
| C=CCNC(=S)NCCO | 35.5 µM [rising, single point] | – |
| O=C(CSc1cccc[n+]1[O-])c1cccs1 | – | 28.2 µM [falling, single point] |
| COc1ccc(C(=O)Nc2cc(OC)nc(OC)n2)cc1 | 23.1 µM [falling, partial curve] | – |
| O=C(O)c1ccccc1C(=O)NCc1c(Cl)cccc1Sc1ccc(Cl)cc1 | 4.47 µM [falling, single point] | – |
| CCOC(=O)NC(=O)/C(C#N)=N\Nc1cccc(Cl)c1 | 0.562 µM [rising, full curve, poor fit] | – |
| COc1ccc(CCN(/C=C2\Sc3ccccc3C2=O)C(C)=O)cc1OC | 3.16 µM [falling, full curve, poor fit] | – |
| COC(=O)c1c(-c2ccccc2OC)sc2ccccc12 | 5.17 µM [rising, partial curve, poor fit] | – |

| Structure (SMILES) | AC50 [1] | AC50 [2] |
| --- | --- | --- |
| O=c1[nH]c(/C=C\c2ccc(O)c(Cl)c2)nc(O)c1[N+](=O)[O-] | 5.62 µM [falling, full curve, poor fit] | – |
| CCCN(CC(=O)Nc1cccc(S(N)(=O)=O)c1)CC(=O)Nc1ccc(F)c(F)c1F | 6.31 µM [rising, single point] | – |
| Cc1noc(C)c1S(=O)(=O)NCCc1csc2nc(-c3ccc(Cl)cc3)nn12 | 25.1 µM [falling, single point] | – |
| NSc1nc(N)c2nc(-c3ccccc3)c(-c3ccccc3)nc2n1 | 11.2 µM [falling, partial curve, poor fit] | – |
| CCN(CC)c1ccc(NC(=S)NC(=O)C2CCC2)cc1 | 35.5 µM [rising, single point] | – |
| CCn1c(SCC(=O)N2CCCC(C)C2)nnc1-c1ccco1 (stereo not drawn) | 1.12 µM [rising, full curve] | – |
| COc1cccc(C(=O)NCC(=O)OCC(=O)C(C)(C)C)c1 | 5.17 µM [rising, partial curve] | – |
| Cc1ccc(-c2nnc(Nc3ccccc3)o2)cc1 | 1 µM [falling, full curve] | – |
| Cc1ccc(-c2cc(C(=O)NC3=NCCS3)c3cc(Br)ccc3n2)o1 | 10.3 µM [falling, partial curve] | – |
| O=C(Cc1ccc(Br)c2ccccc12)N/N=C/c1ccccn1 | 35.5 µM [rising, single point] | 11.2 µM [falling, partial curve, poor fit] |
| CCOCc1nnc(NC(=O)c2ccc(NC(C)=O)cc2)s1 | 11.2 µM [falling, partial curve, poor fit] | – |
| COC(=O)c1sccc1NC(=O)Nc1ccc(Cl)c(Cl)c1 | 7.31 µM [falling, partial curve] | – |
| CCCn1c(=O)c2c(nc3n2CC(C)CN3Cc2ccccc2)n(C)c1=O (stereo not drawn) | 4.47 µM [falling, partial curve, poor fit] | – |
| Cc1ccccc1N(Cc1cc(=O)[nH]c2ccccc12)C(=O)CCl | 14.1 µM [falling, partial curve] | – |
| CCOC(=O)c1cc2cc(-c3c(C(=O)OCC)oc4cc(O)cc(O)c4c3=O)ccc2o1 | 35.5 µM [falling, single point] | – |
| Cc1cccc(NC(=O)Cc2noc3ccccc23)c1 | 23.1 µM [falling, single point] | – |
| O=C(COc1ccccc1[N+](=O)[O-])N(C1CCCCC1)C1CCS(=O)(=O)C1 (stereo not drawn) | 8.2 µM [falling, partial curve] | – |
| CC(Oc1ccccc1)C(=O)NNC(=O)c1ccccn1 (stereo not drawn) | 16.4 µM [rising, single point] | – |
| CC(C)c1ccc(CNC(=O)CSCC(=O)Nc2ccc3ccccc3c2)cc1 | 22.4 µM [falling, single point] | – |
| CCOC(=O)CC(=O)CSc1nc2c(C)c(C)ccc2cc1C | 32.6 µM [rising, single point] | – |
| COc1ccc(/C=C2/SC(=O)N(CCCCCC(=O)Nc3ccccc3C(=O)O)C2=S)cc1 | 0.355 µM [falling, full curve] | – |
